Cleaved PARP after 72 h of treatment

Data from the primary screen of doi:10.1371/journal.pone.0140310, rounded.

First drug in all entries: bexarotene, 10 µM, C=C(c1ccc(C(=O)O)cc1)c1cc2c(cc1C)C(C)(C)CCC2(C)C

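Human melanoma cells were exposed to a pair of drugs for 72 h in 1,536-well plates and read by automated microscopy after fixing and staining. The read-out is the fraction of cleaved-PARP-positive nuclei, in % of that fraction in the DMSO control; 200 means twice the control level of this apoptosis marker. Concentrations were fixed for each drug; these are the higher of two levels. The file gives one value for each pair and line, without errors, so small differences may be noise. Basal and induced levels differ widely between cell lines.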
An unselected part of the screen is shown.

With Cn1c(Nc2ccc(C(F)(F)F)cc2)nc2cc(Oc3ccnc(-c4ncc(C(F)(F)F)[nH]4)c3)ccc21 at 0.4 µM the screen read A101D: 125; COLO 800: 38.0; UACC-257: 63.5; COLO 829: 167; LOX IMVI: 42.4; A2058: 190. With Cn1nnc2c(C(N)=O)ncn2c1=O at 10 µM the screen read A101D: 88.6; COLO 800: 28.3; UACC-257: 77.0; COLO 829: 307; LOX IMVI: 100; A2058: 381. COc1cc([C@@H]2c3cc4c(cc3[C@@H](O[C@@H]3O[C@@H]5CO[C@@H](C)O[C@H]5[C@H](O)[C@H]3O)[C@H]3COC(=O)[C@H]23)OCO4)cc(OC)c1O at 0.1 µM gave A101D: 82.1; COLO 800: 147; UACC-257: 113; COLO 829: 195; LOX IMVI: 74.5; A2058: 96.2.

With O=C(Nc1ccccc1)c1cc([N+](=O)[O-])ccc1Cl at 10 µM the screen read A101D: 72.7; COLO 800: 162; UACC-257: 80.8; COLO 829: 324; LOX IMVI: 72.6; A2058: 107. For COC(=O)c1sccc1S(=O)(=O)Nc1ccc(Nc2ccccc2)cc1OC at 5 µM the values were A101D: 17.2; COLO 800: 88.0; UACC-257: 37.9; COLO 829: 172; LOX IMVI: 83.3; A2058: 91.9. With CN(C)S(=O)(=O)c1ccc2c(c1)/C(=C/c1cc3c([nH]1)CCCC3)C(=O)N2 at 2 µM the screen read A101D: 64.3; COLO 800: 84.0; UACC-257: 75.4; COLO 829: 148; LOX IMVI: 324; A2058: 145.

With CS(=O)(=O)c1ccc(C(=O)Nc2ccc(Cl)c(-c3ccccn3)c2)c(Cl)c1 at 5 µM the screen read A101D: 60.9; COLO 800: 35.8; UACC-257: 193; COLO 829: 120; LOX IMVI: 99.5; A2058: 122. For CC(C)CCN1c2nc(Nc3cc(F)c(O)c(F)c3)ncc2N(C)C(=O)C1C (centres unmarked) at 1 µM the values were A101D: 174; COLO 800: 52.3; UACC-257: 75.0; COLO 829: 127; LOX IMVI: 71.8; A2058: 121. For NCC(=O)Nc1ccc(-n2nc(C(F)(F)F)cc2-c2ccc3c(ccc4ccccc43)c2)cc1 at 5 µM the values were A101D: 586; COLO 800: 117; UACC-257: 173; COLO 829: 61.6; LOX IMVI: 63.3; A2058: 84.4.

CN1CCN(c2ccc3nc(-c4c(N)c5c(F)cccc5[nH]c4=O)[nH]c3c2)CC1 at 0.5 µM gave A101D: 200; COLO 800: 194; UACC-257: 216; COLO 829: 85.5; LOX IMVI: 138; A2058: 335. CCN(CC)CCNC(=O)c1c(C)[nH]c(/C=C2\C(=O)Nc3ccc(F)cc32)c1C at 2 µM gave A101D: 56.0; COLO 800: 31.8; UACC-257: 35.8; COLO 829: 64.5; LOX IMVI: 30.4; A2058: 189. O=C(Nc1cccc(Cl)c1)Nc1ncc(CCNc2ncnc3ccsc23)s1 at 0.004 µM gave A101D: 179; COLO 800: 279; UACC-257: 42.3; COLO 829: 75.6; LOX IMVI: 43.2; A2058: 196.

C[C@]1(O)C[C@@H](c2nc(-c3ccc4ccc(-c5ccccc5)nc4c3)c3c(N)nccn32)C1 at 2 µM gave A101D: 62.1; COLO 800: 138; UACC-257: 27.3; COLO 829: 149; LOX IMVI: 72.3; A2058: 97.1. Cn1cc(C2=C(c3cn(C4CCN(Cc5ccccn5)CC4)c4ccccc34)C(=O)NC2=O)c2ccccc21 at 4 µM gave A101D: 105; COLO 800: 139; UACC-257: 87.8; COLO 829: 65.9; LOX IMVI: 201; A2058: 133. With c1cc(-c2cnn3cc(-c4ccc(OCCN5CCCCC5)cc4)cnc23)ccn1 at 2 µM the screen read A101D: 37.6; COLO 800: 101; UACC-257: 26.0; COLO 829: 247; LOX IMVI: 52.9; A2058: 137.

Results for OCCn1cc(-c2cnc3nnn(Cc4ccc5ncccc5c4)c3n2)cn1 at 5 µM are A101D: 30.2; COLO 800: 56.1; UACC-257: 78.9; COLO 829: 136; LOX IMVI: 56.5; A2058: 138. For Cc1cn(-c2cc(NC(=O)c3ccc(C)c(Nc4nccc(-c5cccnc5)n4)c3)cc(C(F)(F)F)c2)cn1 at 1 µM the values were A101D: 54.8; COLO 800: 66.5; UACC-257: 30.5; COLO 829: 161; LOX IMVI: 689; A2058: 97.4. Nc1nc(F)nc2c1ncn2[C@@H]1O[C@H](CO)[C@@H](O)[C@@H]1O at 1 µM gave A101D: 55.4; COLO 800: 81.3; UACC-257: 6430; COLO 829: 103; LOX IMVI: 164; A2058: 83.2.

The first 2 entries again:

Second drug,A101D,COLO 800,UACC-257,COLO 829,LOX IMVI,A2058
Cn1c(Nc2ccc(C(F)(F)F)cc2)nc2cc(Oc3ccnc(-c4ncc(C(F)(F)F)[nH]4)c3)ccc21 at 0.4 µM,125,38.0,63.5,167,42.4,190
Cn1nnc2c(C(N)=O)ncn2c1=O at 10 µM,88.6,28.3,77.0,307,100,381